Assay results as given in patent publication US6358710.
No constants are given. Whether binding was seen depends on the method and setting. Some entries that bind do so weakly or less than the wild type.

Target: T1, NR-LU-10 or NR-LU-13 antigen (approximately 40 kilodalton glycoprotein antigen expressed by many carcinomas) (human) (UniProt P16422)
T1 sequence (looked up): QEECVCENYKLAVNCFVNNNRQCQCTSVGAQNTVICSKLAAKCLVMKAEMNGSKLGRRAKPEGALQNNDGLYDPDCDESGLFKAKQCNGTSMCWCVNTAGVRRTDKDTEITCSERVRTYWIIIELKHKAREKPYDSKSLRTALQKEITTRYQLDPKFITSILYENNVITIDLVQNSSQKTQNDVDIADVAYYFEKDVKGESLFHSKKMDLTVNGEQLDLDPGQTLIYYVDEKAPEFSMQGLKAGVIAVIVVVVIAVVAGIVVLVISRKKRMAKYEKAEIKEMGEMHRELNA
Test: competitive ELISA, plate coated with NP40 extract of LS174 cells, competitor peroxidase-labeled murine NR-LU-10

- binding: binds
B1: humanized NRX451 antibody (antibody, V domains shown)
VH: QVQLVQSGAEVKKPGASVKVSCKASGFNIKDTYMHWVRQAPGQGLQWMGRIDPANGNTKCDLSFQGRVTITADTSINTAYMELSSLRSDDTAVYYCSREVLTGTWSLDYWGQGTLVTVSS
VL: DIQMTQSPSSLSASVGDRVTITCRASQGIRGNLDWYQQKPGKGPKLLIYSTSNLNSGVPSRFSGSGSGSDYTLTISSLQPEDFATYYCLQRNAYPYTFGQGTKLEIK
